Results are given in words; binding and its absence hold for the method and conditions named. Some binding calls cover weakened binding; strength is not graded here. For some assays here: Where a sequence is shown, tags or fusion partners need not be part of it.
T1: Drosophila Tribbles activation loop mutant Trbl^SLE/G, yeast two-hybrid bait (Drosophila) (UniProt Q9V3Z1)
T1 sequence: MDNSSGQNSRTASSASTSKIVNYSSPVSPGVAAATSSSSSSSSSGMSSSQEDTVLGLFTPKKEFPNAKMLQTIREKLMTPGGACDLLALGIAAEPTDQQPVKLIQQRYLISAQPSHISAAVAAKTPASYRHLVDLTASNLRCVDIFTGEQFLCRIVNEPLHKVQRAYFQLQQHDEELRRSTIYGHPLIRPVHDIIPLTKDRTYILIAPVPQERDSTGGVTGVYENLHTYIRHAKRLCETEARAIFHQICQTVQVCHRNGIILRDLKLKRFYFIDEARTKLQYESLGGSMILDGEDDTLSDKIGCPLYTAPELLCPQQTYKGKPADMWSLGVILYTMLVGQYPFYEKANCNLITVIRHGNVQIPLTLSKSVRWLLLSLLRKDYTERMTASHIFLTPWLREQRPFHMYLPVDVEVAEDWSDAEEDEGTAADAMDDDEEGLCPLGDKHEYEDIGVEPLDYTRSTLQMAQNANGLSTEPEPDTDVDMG

By UniProt entry, the sequences of proteins in these tests, tags left out.
UniProt Q02637: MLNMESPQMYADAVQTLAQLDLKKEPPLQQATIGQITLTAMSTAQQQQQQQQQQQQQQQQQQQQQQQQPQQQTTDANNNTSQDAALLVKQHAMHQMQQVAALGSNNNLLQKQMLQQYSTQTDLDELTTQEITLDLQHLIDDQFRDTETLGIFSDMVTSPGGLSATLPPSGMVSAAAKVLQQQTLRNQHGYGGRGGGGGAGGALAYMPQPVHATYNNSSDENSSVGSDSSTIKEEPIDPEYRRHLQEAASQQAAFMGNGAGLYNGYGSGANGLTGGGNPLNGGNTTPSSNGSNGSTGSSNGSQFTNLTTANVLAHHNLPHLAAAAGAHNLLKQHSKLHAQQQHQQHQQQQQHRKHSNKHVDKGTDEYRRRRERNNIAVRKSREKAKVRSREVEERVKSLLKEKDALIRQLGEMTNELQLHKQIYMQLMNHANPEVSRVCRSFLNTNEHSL


Key:
[1] = target: T1, Drosophila Tribbles activation loop mutant Trbl^SLE/G, yeast two-hybrid bait (Drosophila); assay: two-hybrid; yeast two-hybrid assay shown in Fig. S9; orientation and conditions not given
[2] = target: Drosophila Tribbles (Trbl), wild type, yeast two-hybrid fusion (Drosophila) (UniProt Q9V3Z1); assay: two-hybrid; MaV203 yeast; bait in pDEST32, prey in pDEST22; colony growth of co-transformants on media with increasing concentrations of 3-AT (His3 reporter)

binding [1] | binding [2] | Molecule
binds |  | Slbo (C/EBP transcription factor encoded by slow border cells), yeast two-hybrid fusion (from UniProt Q02637 1-449)
 | binds | Drosophila Tribbles (Trbl), wild type, yeast two-hybrid fusion (natural protein, UniProt Q9V3Z1 1-484, looked up, Tribbles (Trbl), Drosophila pseudokinase; WT Trbl ORF; One molecule for both two-hybrid copies: each copy carries only one of the two tags; also called WT Trbl; pDEST32-Trbl; source: yeast two-hybrid fusion (MaV203 yeast)) MDNSSGQNSRTASSASTSKIVNYSSPVSPGVAAATSSSSSSSSSGMSSSQEDTVLGLFTPKKEFPNAKMLQTIREKLMTPGGACDLLALGIAAEPTDQQPVKLIQQRYLISAQPSHISAAVAAKTPASYRHLVDLTASNLRCVDIFTGEQFLCRIVNEPLHKVQRAYFQLQQHDEELRRSTIYGHPLIRPVHDIIPLTKDRTYILIAPVPQERDSTGGVTGVYENLHTYIRHAKRLCETEARAIFHQICQTVQVCHRNGIILRDLKLKRFYFIDEARTKLQYESLEGSMILDGEDDTLSDKIGCPLYTAPELLCPQQTYKGKPADMWSLGVILYTMLVGQYPFYEKANCNLITVIRHGNVQIPLTLSKSVRWLLLSLLRKDYTERMTASHIFLTPWLREQRPFHMYLPVDVEVAEDWSDAEEDEGTAADAMDDDEEGLCPLGDKHEYEDIGVEPLDYTRSTLQMAQNANGLSTEPEPDTDVDMG
